The source gives many values for each of these; only a part stands here.
Tests used:
Assay type in all cases: cell-based
Conditions in all cases: U-87MG ATCC
[1] = Inhibition of RTK/PI3K/AKT/mTOR signaling in human U87 cells assessed as up regulation of BTB domain containing 2 gene expression at cytotoxic IC50 measured after 48 hrs relative to control
[2] = Inhibition of RTK/PI3K/AKT/mTOR signaling in human U87 cells assessed as down regulation of KIAA0513 gene expression at cytotoxic IC50 measured after 48 hrs relative to control
[3] = Inhibition of RTK/PI3K/AKT/mTOR signaling in human U87 cells assessed as up regulation of ATPase secretory pathway Ca2+ transporting 2 gene expression at cytotoxic IC50 measured after 48 hrs relative to control
[4] = Inhibition of RTK/PI3K/AKT/mTOR signaling in human U87 cells assessed as down regulation of MAML1 gene expression at cytotoxic IC50 measured after 48 hrs relative to control
[5] = Inhibition of RTK/PI3K/AKT/mTOR signaling in human U87 cells assessed as down regulation of RGS2 gene expression at cytotoxic IC50 measured after 48 hrs relative to control
[6] = Inhibition of RTK/PI3K/AKT/mTOR signaling in human U87 cells assessed as down regulation of TMTC3 gene expression at cytotoxic IC50 measured after 48 hrs relative to control
[7] = Inhibition of RTK/PI3K/AKT/mTOR signaling in human U87 cells assessed as down regulation of UBL3 gene expression at cytotoxic IC50 measured after 48 hrs relative to control
[8] = Inhibition of RTK/PI3K/AKT/mTOR signaling in human U87 cells assessed as down regulation of POLR3C gene expression at cytotoxic IC50 measured after 48 hrs relative to control
[9] = Inhibition of RTK/PI3K/AKT/mTOR signaling in human U87 cells assessed as up regulation of solute carrier family 15 member 4 gene expression at cytotoxic IC50 measured after 48 hrs relative to control
[10] = Inhibition of RTK/PI3K/AKT/mTOR signaling in human U87 cells assessed as down regulation of C18orf25 gene expression at cytotoxic IC50 measured after 48 hrs relative to control
[11] = Inhibition of RTK/PI3K/AKT/mTOR signaling in human U87 cells assessed as up regulation of NOP53 gene expression at cytotoxic IC50 measured after 48 hrs relative to control
[12] = Inhibition of RTK/PI3K/AKT/mTOR signaling in human U87 cells assessed as up regulation of FtsJ RNA methyltransferase homolog 1 (E. coli) gene expression at cytotoxic IC50 measured after 48 hrs relative to control
[13] = Inhibition of RTK/PI3K/AKT/mTOR signaling in human U87 cells assessed as down regulation of FGFRL1 gene expression at cytotoxic IC50 measured after 48 hrs relative to control
[14] = Inhibition of RTK/PI3K/AKT/mTOR signaling in human U87 cells assessed as up regulation of Kruppel like factor 2 gene expression at cytotoxic IC50 measured after 48 hrs relative to control
[15] = Inhibition of RTK/PI3K/AKT/mTOR signaling in human U87 cells assessed as down regulation of ZBTB21 gene expression at cytotoxic IC50 measured after 48 hrs relative to control
[16] = Inhibition of RTK/PI3K/AKT/mTOR signaling in human U87 cells assessed as down regulation of MIGA2 gene expression at cytotoxic IC50 measured after 48 hrs relative to control
[17] = Inhibition of RTK/PI3K/AKT/mTOR signaling in human U87 cells assessed as down regulation of WDR1 gene expression at cytotoxic IC50 measured after 48 hrs relative to control
[18] = Inhibition of RTK/PI3K/AKT/mTOR signaling in human U87 cells assessed as down regulation of CDC6 gene expression at cytotoxic IC50 measured after 48 hrs relative to control
[19] = Inhibition of RTK/PI3K/AKT/mTOR signaling in human U87 cells assessed as down regulation of SGMS2 gene expression at cytotoxic IC50 measured after 48 hrs relative to control
[20] = Inhibition of RTK/PI3K/AKT/mTOR signaling in human U87 cells assessed as down regulation of PIP4K2C gene expression at cytotoxic IC50 measured after 48 hrs relative to control
[21] = Inhibition of RTK/PI3K/AKT/mTOR signaling in human U87 cells assessed as down regulation of RYBP gene expression at cytotoxic IC50 measured after 48 hrs relative to control
[22] = Inhibition of RTK/PI3K/AKT/mTOR signaling in human U87 cells assessed as down regulation of PHLPP2 gene expression at cytotoxic IC50 measured after 48 hrs relative to control
[23] = Inhibition of RTK/PI3K/AKT/mTOR signaling in human U87 cells assessed as up regulation of reticulocalbin 1 gene expression at cytotoxic IC50 measured after 48 hrs relative to control
[24] = Inhibition of RTK/PI3K/AKT/mTOR signaling in human U87 cells assessed as up regulation of septin 5 gene expression at cytotoxic IC50 measured after 48 hrs relative to control
[25] = Inhibition of RTK/PI3K/AKT/mTOR signaling in human U87 cells assessed as up regulation of ArfGAP with GTPase domain, ankyrin repeat and PH domain 1 gene expression at cytotoxic IC50 measured after 48 hrs relative to control
[26] = Inhibition of RTK/PI3K/AKT/mTOR signaling in human U87 cells assessed as up regulation of SND1 gene expression at cytotoxic IC50 measured after 48 hrs relative to control
[27] = Inhibition of RTK/PI3K/AKT/mTOR signaling in human U87 cells assessed as down regulation of LRRC8A gene expression at cytotoxic IC50 measured after 48 hrs relative to control
[28] = Inhibition of RTK/PI3K/AKT/mTOR signaling in human U87 cells assessed as up regulation of SH3 and multiple ankyrin repeat domains 2 gene expression at cytotoxic IC50 measured after 48 hrs relative to control
[29] = Inhibition of RTK/PI3K/AKT/mTOR signaling in human U87 cells assessed as up regulation of SRY-box 9 gene expression at cytotoxic IC50 measured after 48 hrs relative to control
[30] = Inhibition of RTK/PI3K/AKT/mTOR signaling in human U87 cells assessed as down regulation of AP2S1 gene expression at cytotoxic IC50 measured after 48 hrs relative to control
[31] = Inhibition of RTK/PI3K/AKT/mTOR signaling in human U87 cells assessed as up regulation of cardiolipin synthase 1 gene expression at cytotoxic IC50 measured after 48 hrs relative to control
[32] = Inhibition of RTK/PI3K/AKT/mTOR signaling in human U87 cells assessed as down regulation of KPNA2 gene expression at cytotoxic IC50 measured after 48 hrs relative to control

**Q.** What does the source list for `CC(=O)C(=NNc1ccccc1C#N)C(C)=O`?
**A.** log2FC [1]: 0.787; log2FC [2]: -1.6; log2FC [3]: 1.51; log2FC [4]: -0.482; log2FC [5]: -2.33; log2FC [6]: -0.742; log2FC [7]: -1.18; log2FC [8]: -0.921; log2FC [9]: 0.914; log2FC [10]: -0.58; log2FC [11]: 0.474; log2FC [12]: 0.663; log2FC [13]: -0.51; log2FC [14]: 1.17; log2FC [15]: -0.603; log2FC [16]: -0.805; log2FC [17]: -0.509; log2FC [18]: -1.06; log2FC [19]: -1.21; log2FC [20]: -0.683; log2FC [21]: -1.44; log2FC [22]: -1.17; log2FC [23]: 1.05; log2FC [24]: 1.57; log2FC [25]: 0.657; log2FC [26]: 0.36; log2FC [27]: -0.689; log2FC [28]: 1.24; log2FC [29]: 0.944; log2FC [30]: -0.556; log2FC [31]: 0.901; log2FC [32]: -0.331
